Laboratory results: PubChem BioAssay AID652243 (Drosophila RNAi Screening Center, 2013)
In all, the deposit lists about 24,000 reagents; shown is a random part of those with a known target gene and a result. Of all reagents, 246 (1%) are marked active. 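Plates not normalised; calls are printed but the firefly/Renilla ratio behind them is not deposited; fold cut for lowering reported inconsistently.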 Raw values are not corrected between plates. Entries without a mark were called inactive. Names joined by + are all predicted targets of the reagent. Not given: the amount of reagent.

Screen: 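Fly genes required for human androgen receptor driven transcription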 (primary screen)
Cell system: Drosophila S2R+ cells
Knock-down reagent: long dsRNA against Drosophila genes
Timing: 72 h (48 h, then 24 h hormone)
Challenge: synthetic androgen R1881 at 10 nM for 24 h
Measurement: 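Firefly light from an androgen-responsive reporter and Renilla control light per well, raw and unnormalised, for each of two replicates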
Scale: firefly reporter light: higher = more light from androgen-responsive reporter; Renilla control light: higher = more constitutive control signal (cell number, transfection)
Active means: 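Hit when the log firefly-to-Renilla ratio dropped or increased by a fixed fold versus the mean of GFP or LacZ controls across duplicate plates; lowering cut given as 1.5 and as 3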
Meaning of the calls: active = hit: reporter lowered or raised; inactive = no hit

predicted target,amplicon,"firefly reporter light, replicate 1","firefly reporter light, replicate 2","Renilla control light, replicate 1","Renilla control light, replicate 2"
Ak3,DRSC16075,72720,1.01e5,2.00e6,2.07e6
Ak3,DRSC27968,5.90e5,4.39e5,1.54e6,1.16e6
vg,DRSC07715,2.04e5,1.69e5,2.29e6,2.54e6
vg,DRSC22669,1.02e6,9.22e5,1.29e6,1.20e6
vg,DRSC29857,4.36e5,3.89e5,1.11e6,1.09e6
Bre1,DRSC09742,9.66e5,6.11e5,1.34e6,1.14e6
CG40228,DRSC37832,1.20e6,8.45e5,3.30e6,2.37e6
RpS7,DRSC15394,2.22e5,2.20e5,1.51e6,2.14e6
RpS7,DRSC28468,2.29e5 (active),3.05e5,8.68e5,1.30e6
dind,DRSC16294,1.09e5,82053,5.64e5,9.04e5
dind,DRSC27615,3.89e5,3.05e5,6.36e5,4.94e5
Cyt-c-p,DRSC03310,1.19e5,1.43e5,1.85e6,2.02e6
Cpsf6,DRSC10781,5.89e5,5.28e5,8.61e5,1.00e6
CG11037,DRSC11631,2.04e5,2.37e5,2.13e6,2.53e6
RN-tre,DRSC07521,1.19e5,1.22e5,3.64e6,3.64e6
RN-tre,DRSC28214,5.56e5,1.10e6,1.15e6,1.52e6
Psf2,DRSC00516,1.36e5,1.11e5,8.42e5,6.26e5
CG9040,DRSC11053,1.93e5,1.55e5,2.81e6,1.67e6
CR33317,DRSC02653,1.70e5,1.89e5,1.53e6,2.10e6
Atg17,DRSC12221,9996,22756,3.67e5,2.97e5
CG7458,DRSC11829,2.81e5,3.09e5,2.16e6,2.09e6
CG7458,DRSC21340,1.13e6,9.57e5,2.52e6,1.91e6
CG34453,DRSC38689,8.27e5,7.21e5,1.83e6,2.04e6
zf30C,DRSC03641,1.24e6,1.30e6,1.88e6,1.88e6
CG13088,DRSC02192,2.39e5,2.05e5,2.06e6,1.93e6
CG32301,DRSC08613,68729,93240,9.28e5,1.06e6
CG13060,DRSC09943,2.40e5,3.09e5,2.97e6,3.05e6
CG13060,DRSC28110,9.53e5,1.04e6,1.68e6,1.69e6
Grip163,DRSC10538,1.07e5,1.26e5,1.74e6,1.62e6
Grip163,DRSC26469,3.14e5,3.10e5,5.80e5,7.12e5
dpr16,DRSC12217,60193,36388,1.21e6,1.11e6
dpr16,DRSC12249,5.13e5,5.05e5,2.64e6,3.23e6
CG32643,DRSC18962,7.05e5,4.73e5,9.51e5,3.65e5
RpS27A,DRSC03421,2.17e5,2.69e5,1.40e6,1.55e6
RpS27A,DRSC30047,5.04e5,3.24e5,1.07e6,1.22e6
ppk8,DRSC17269,8.08e5,5.99e5,3.98e5,4.08e5
Rbbp5 + CG6434 (retired record),DRSC10635,2.95e5,2.54e5,2.88e6,2.37e6
CG42788,DRSC15330,1.91e5,1.08e5,2.25e6,2.36e6
CG42788,DRSC16139,79410,1.06e5,1.33e6,1.47e6
CG42788,DRSC16152,87644,1.01e5,1.48e6,1.79e6
CG42788,DRSC27590,3.00e5,2.99e5,4.47e5,7.40e5
CG31915,DRSC03000,99310,1.17e5,8.77e5,9.49e5
LysB,DRSC08673,1.06e5,1.12e5,1.34e6,1.62e6
veg (retired record),DRSC07714,51736,78761,9.58e5,9.58e5
CG14367,DRSC14829,1.43e5,2.42e5,2.52e6,3.10e6
epsilonTry,DRSC07611,1.71e5,1.90e5,1.05e6,9.15e5
epsilonTry,DRSC25110,8.21e5,6.39e5,4.64e5,5.57e5
CG10660,DRSC09769,2.64e5,1.34e5,1.75e6,9.59e5
CG10660,DRSC29040,7.11e5,7.15e5,1.91e6,1.36e6
dare + CG30033,DRSC22908,7.34e5,1.58e6,3.03e5,4.13e5
CG14830,DRSC08876,1.24e5,1.25e5,3.78e5,2.87e5
CG44098,DRSC12214,7.00e5,9.36e5,1.35e6,2.29e6
CG44098,DRSC12240,69468,94760,1.92e6,1.81e6
CG44098,DRSC12327,91612,96913,2.18e6,2.07e6
CG44098,DRSC23643,4.10e5,4.58e5,6.53e5,7.04e5
CG44098,DRSC24166,8.62e5,8.25e5,1.22e6,1.29e6
CG44098,DRSC26836,4.52e5,4.24e5,1.26e6,9.29e5
Ost48,DRSC18693,98829,1.02e5,7.02e5,8.24e5
VhaPPA1-1,DRSC16170,64442,69719,4.95e5,5.06e5
VhaPPA1-1,DRSC24144,2.48e5,3.19e5,8.66e5,5.14e5
CG8768,DRSC07259,5.78e5,7.34e5,1.66e6,1.70e6
RpLP0,DRSC11878,2.25e5,1.81e5,2.79e6,2.25e6
RpLP0,DRSC22110,3.70e5,4.04e5,1.05e6,9.48e5
Galphaq,DRSC07432,1.32e6,1.29e6,1.99e6,1.49e6
Galphaq,DRSC25341,6.31e5,4.40e5,4.16e5,5.96e5
CG17192,DRSC15186,1.42e5,1.89e5,1.39e6,1.91e6
CG17192,DRSC24691,9.11e5,9.24e5,8.49e5,7.31e5
CG33791 + CG18170,DRSC08523,1.97e5,1.89e5,2.74e6,3.18e6
CG33791 + CG18170,DRSC08601,29963,1.12e5,6.43e5,1.40e6
CG33791 + CG18170,DRSC24614,9.37e5,9.03e5,7.16e5,7.98e5
CG33791 + CG18170,DRSC39043,5.29e5,3.12e5,1.42e6,9.74e5
Dronc,DRSC11231,8.30e5,3.43e5,7.89e5,7.37e5
Eig71Ef,DRSC11153,3.39e5,3.46e5,2.62e6,2.73e6
Map60,DRSC07464,1.12e6,1.17e6,1.33e6,9.23e5

10 entries already listed, ordered by “Renilla control light, replicate 1”, descending.
predicted target,amplicon,"firefly reporter light, replicate 1","firefly reporter light, replicate 2","Renilla control light, replicate 1","Renilla control light, replicate 2"
CG14367,DRSC14829,1.43e5,2.42e5,2.52e6,3.10e6
CG44098,DRSC12240,69468,94760,1.92e6,1.81e6
CG10660,DRSC29040,7.11e5,7.15e5,1.91e6,1.36e6
CG10660,DRSC09769,2.64e5,1.34e5,1.75e6,9.59e5
CG44098,DRSC12214,7.00e5,9.36e5,1.35e6,2.29e6
epsilonTry,DRSC07611,1.71e5,1.90e5,1.05e6,9.15e5
veg (retired record),DRSC07714,51736,78761,9.58e5,9.58e5
epsilonTry,DRSC25110,8.21e5,6.39e5,4.64e5,5.57e5
CG14830,DRSC08876,1.24e5,1.25e5,3.78e5,2.87e5
dare + CG30033,DRSC22908,7.34e5,1.58e6,3.03e5,4.13e5
